# Measured values: PubChem BioAssay AID493014 (National Center for Advancing Translational Sciences (NCATS), 2011)
# This is one part of the list. Further columns of the screen follow, without active or inactive calls. The list favours compounds with an active or inconclusive main result. Words in brackets tell the shape of the fitted curve; partial curves, single points and poor fits give uncertain potencies.
# Assay: qHTS Assay to Find Inhibitors of Chronic Active B-Cell Receptor Signaling
# Conditions: ABC-DLBCL IkBa-CBG/CBR reporter, luminescence ratio (green luciferase fused to IkBa over red control in TMD8 lymphoma cells), 4 h
# How it was run: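 TMD8 human ABC-DLBCL cells with doxycycline-inducible IκBα–green luciferase fusion and unfused red luciferase, in 0.5% FBS medium; compounds up to 46 uM, 4 h at 37C. Green/red luminescence ratio, filter-overlap corrected, fitted to concentration-response curves.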
# [1] = measured here: CBR red luminescence, cell number
# [2] = measured here: IkBa-CBG green luminescence
SMILES,AC50 [1],AC50 [2]
Cc1cc(SCC(=O)Nc2ccc(O)cc2)n2ncc(-c3ccccc3)c2n1,"5.62 µM [rising, single point]",
Cc1nc2nc(-c3ccccc3)[nH]n2c(=O)c1C,"9.2 µM [falling, partial curve, poor fit]",
CC(C)N(C(=O)Cn1cc(S(=O)(=O)CC(=O)NCc2ccccc2)c2ccccc21)C(C)C,"0.794 µM [rising, partial curve]",
O=C(Nc1ccncc1)Nc1ccncc1,"17.8 µM [falling, single point]",
CCOc1ccc(/C=C/C(=O)N(CC)CC(=O)NCc2cccs2)cc1OC,"29.1 µM [rising, single point]",
Cc1ccc(C(=O)N2C(=O)c3cccc(N)c3C2=O)o1,"15.8 µM [falling, partial curve]",
O=[N+]([O-])c1cccc(-c2cn(-c3ccccc3)c(=S)[nH]2)c1,"3.55 µM [rising, full curve, poor fit]",
COc1ccc(NC(=O)CCn2c(-c3ccc(F)cc3)cc(C(C)=O)c2C)c(OC)c1,"3.55 µM [rising, full curve, poor fit]",
CCCNc1ncnc2c1c(-c1ccccc1)cn2-c1ccc(OCC)cc1,"2.82 µM [rising, partial curve, poor fit]",
C/C(=N\NC(=O)c1ccc2c(c1)OCO2)c1cccnc1,"3.98 µM [falling, full curve, poor fit]",
COC(=O)c1ccccc1NC(=O)C1CC(=O)N(c2ccccc2)C1 (configuration not stated),"2.06 µM [rising, partial curve, poor fit]",
O=C(NCCCO)/C(=C\c1cn(-c2ccccc2)nc1-c1cccnc1)NC(=O)c1ccccc1,"7.31 µM [rising, partial curve, poor fit]",
O=C(c1cnn(-c2ccccc2)c1)c1cc(F)ccc1O,"1.41 µM [rising, partial curve]",
O=C(O)CC1(CC(=O)Nc2ccc(Oc3cccc(C(F)(F)F)c3)nc2)CCCC1,"35.5 µM [falling, single point]",
O=S(=O)(Nc1ccc(O)c2ccccc12)c1ccc(Br)cc1,"35.5 µM [falling, single point]",
Cc1cccc(-n2ncc3c(NCCCN4CCCC4=O)ncnc32)c1,"0.562 µM [falling, full curve]",
CSCCC(NS(=O)(=O)c1ccc(Cl)cc1)C(=O)OCC(=O)c1c(C)[nH]c2ccccc12 (configuration not stated),"20.6 µM [falling, single point]","25.9 µM [rising, partial curve, poor fit]"
O=c1c2cc(F)ccc2sn1-c1ccccc1,"16.4 µM [falling, partial curve]","3.66 µM [falling, full curve, poor fit]"
CCCn1c(=N)n(CC(O)c2ccc(C)cc2)c2ccccc21 (configuration not stated),"11.2 µM [falling, single point]",
CC[C@H](C)[C@H](NC(=O)c1ccc(Cl)cc1)C(=O)OCC(=O)c1ccc2c(c1)NC(=O)CO2,"18.4 µM [falling, single point]",
NC1=NC[C@H](c2ccccc2)N1CCc1cc(C(F)(F)F)cc(C(F)(F)F)c1,"14.1 µM [falling, partial curve, poor fit]",

SMILES,AC50 [1],AC50 [2]
COc1ccc(S(=O)(=O)N2CCN(CCOc3ccccc3Cl)CC2)cc1OC,"6.51 µM [rising, single point]",
Cc1ccc(C(=O)/C=C/c2cc(Br)cc(Br)c2O)o1,"0.562 µM [rising, full curve, poor fit]","17.8 µM [falling, single point]"
CC(C)(C)NC(=O)/C=C/c1cccc(C(F)(F)F)c1,"7.31 µM [rising, partial curve]",
CN(C)CCNS(=O)(=O)c1ccc(N2CCN(c3ccc(F)cc3)CC2)c([N+](=O)[O-])c1,"20.6 µM [falling, single point]",
CCOC(=O)c1ccc(Nc2nnc(C(C)(C)C)c(=O)[nH]2)cc1,"1.41 µM [falling, full curve, poor fit]",
COc1ccc(F)cc1C(=O)C1CCCN(C(=O)CCN2CCCCO2)C1 (configuration not stated),"10 µM [rising, partial curve, poor fit]",
COc1ccc(/C=C2\CCCC(C(=O)C(F)(F)F)=C2O)cc1,"6.51 µM [rising, full curve, poor fit]",
N#Cc1ccc(NC(=O)Nc2ccc(Cl)cc2)cc1,"0.164 µM [rising, full curve, poor fit]",
Cc1cc(C)cc(N(CC(=O)NCc2ccco2)C(=O)CCC(=O)Nc2ccccn2)c1,"35.5 µM [falling, single point]",
COc1ccc(N=c2oc3cc(O)ccc3cc2C(=O)NCC2CCCO2)cc1 (configuration not stated),"0.891 µM [falling, full curve]",
NNc1nc2c(F)cccc2s1,"10.3 µM [falling, partial curve]",
COc1ccc(-c2csc(NC(=O)c3ccoc3C)n2)cc1,"31.6 µM [falling, partial curve, poor fit]",
CCOc1ccc(/C=N/n2cnnc2)cc1,"6.51 µM [rising, single point]",
CSc1nsc(SCC(=O)Nc2cccc(C(=O)O)c2)n1,"22.4 µM [falling, single point]",
Cc1noc(C)c1C(=O)Nc1c(F)cc(F)cc1Br,"6.51 µM [rising, partial curve, poor fit]",
CCn1c(=S)[nH]c2sc3c(c2c1=O)CCCCC3,,"3.16 µM [rising, full curve, poor fit]"
COc1ccc(NC(=O)Nc2ccc3c(c2)CC(=O)N([C@H](C)CO)C[C@@H](C)[C@H](CN(C)C(=O)Nc2ccccc2)O3)cc1,"2.59 µM [rising, full curve, poor fit]",
O=C(N/N=C/c1cn(-c2ccccc2)nc1-c1cccnc1)c1ccc(F)cc1,"11.2 µM [falling, partial curve, poor fit]",
Cc1nc(SCc2nc3ccccc3[nH]2)c2oc3ccccc3c2n1,"35.5 µM [falling, single point]",
O=C1c2ccccc2C(=O)N1CCc1nc2ccccc2c(=O)n1-c1ccccn1,"0.00461 µM [rising, full curve, poor fit]",
Cc1nc2ccc(NC(=O)CS(=O)(=O)c3ccc(F)cc3)cc2s1,"13 µM [falling, partial curve]",

SMILES,AC50 [1],AC50 [2]
CC(=O)c1ccc(-c2ccccc2[C@H]2[C@H]3C=CC[C@@H](C)[C@@H]3C(=O)N2Cc2ccccc2)cc1,"11.2 µM [falling, single point]",
COc1ccccc1CC(=O)NCc1csc(-c2cccs2)n1,"12.6 µM [rising, partial curve]",
CSc1nnc2n(Cc3ccccc3)c(=O)c3c4c(sc3n12)COC(C(C)C)C4 (configuration not stated),"29.1 µM [rising, partial curve, poor fit]",
O=S(=O)(Nc1cc2nc3ccccc3nc2n1Cc1ccccc1)c1ccc(Cl)cc1,"10.3 µM [rising, partial curve]","8.2 µM [falling, partial curve, poor fit]"
CC(=O)c1ccc(NC(=O)CSc2nccn2CCc2ccccc2)cc1,"0.0231 µM [falling, full curve, poor fit]",
O=S(=O)([N-]c1nc2ccccc2nc1-n1cc[n+](Cc2ccccc2)c1)c1ccccc1,"7.08 µM [rising, full curve, poor fit]",
CN1CCN(C2=C(NS(=O)(=O)c3ccccc3)C(=O)c3ccccc3C2=O)CC1,"35.5 µM [falling, single point]",
Nc1ncc(-c2ccccc2)c(-c2ccc(O)cc2O)n1,"3.98 µM [falling, partial curve, poor fit]",
Cc1ccccc1N/C(SCc1ccc(Cl)cc1)=C(/C#N)C(N)=O,"16.4 µM [falling, single point]",
CCN(CC)c1nc(-c2ccc(C(=O)NN)cc2)nc(-c2ccc(C(=O)NN)cc2)n1,"3.55 µM [falling, partial curve, poor fit]",
COc1ccc(OCC(=O)N/N=C(\C)CC(=O)Nc2cccc([N+](=O)[O-])c2)cc1,"20 µM [falling, single point]",
CCCNc1nc(-c2cc(-c3ccc(Cl)cc3)on2)cc(C(C)C)n1,"1.41 µM [rising, full curve, poor fit]",
CN(C)C(=O)c1ccc2c(c1)n(C)c(=O)n2C,"11.6 µM [rising, partial curve]",
CCCOC(=O)CSC1=C(C#N)C(c2ccccc2OC)C(C#N)C(=O)N1 (configuration not stated),"1.3 µM [falling, partial curve, poor fit]",
O=C(NC(=S)NC(=O)c1ccccc1F)c1ccccc1F,"10.3 µM [falling, partial curve]",
CC(C)Oc1ccccc1C1CC(=O)Nc2cc3c(cc21)OCCO3 (configuration not stated),"11.2 µM [rising, partial curve]","17.8 µM [falling, partial curve]"
CCOC(=O)c1ccc(-c2c(-c3cc(OC)c(OC)c(OC)c3)noc2C)cc1F,"3.16 µM [rising, full curve]","1.78 µM [falling, full curve, poor fit]"
C/C(CCC1CC(C)OC1=O)=N/Nc1nc(-c2ccccc2)cs1 (configuration not stated),"6.51 µM [falling, partial curve]",
CN(Cc1ccc(OC(F)F)cc1)Cc1nc2c(Br)cc(Br)cc2c(=O)[nH]1,"15.8 µM [falling, single point]",

# Part of the list above in a different format.
SMILES	AC50 [1]	AC50 [2]
CSc1nsc(SCC(=O)Nc2cccc(C(=O)O)c2)n1	22.4 µM [falling, single point]	
CCCOC(=O)CSC1=C(C#N)C(c2ccccc2OC)C(C#N)C(=O)N1 (configuration not stated)	1.3 µM [falling, partial curve, poor fit]	
